Source: patent US20040137588A1 (published 2004)
Results are given in words; binding and its absence hold for the method and conditions named. Some results given as binding are weak or reduced against the parent protein; the word gives no strength.

Protein sequences, listed by entry. Tags and fused reporters are not part of them. Lines headed by an entry give the natural chain unless they say otherwise; changes in a name come on top. Residues count along the entry.
UniProt P17948, residues 27-687: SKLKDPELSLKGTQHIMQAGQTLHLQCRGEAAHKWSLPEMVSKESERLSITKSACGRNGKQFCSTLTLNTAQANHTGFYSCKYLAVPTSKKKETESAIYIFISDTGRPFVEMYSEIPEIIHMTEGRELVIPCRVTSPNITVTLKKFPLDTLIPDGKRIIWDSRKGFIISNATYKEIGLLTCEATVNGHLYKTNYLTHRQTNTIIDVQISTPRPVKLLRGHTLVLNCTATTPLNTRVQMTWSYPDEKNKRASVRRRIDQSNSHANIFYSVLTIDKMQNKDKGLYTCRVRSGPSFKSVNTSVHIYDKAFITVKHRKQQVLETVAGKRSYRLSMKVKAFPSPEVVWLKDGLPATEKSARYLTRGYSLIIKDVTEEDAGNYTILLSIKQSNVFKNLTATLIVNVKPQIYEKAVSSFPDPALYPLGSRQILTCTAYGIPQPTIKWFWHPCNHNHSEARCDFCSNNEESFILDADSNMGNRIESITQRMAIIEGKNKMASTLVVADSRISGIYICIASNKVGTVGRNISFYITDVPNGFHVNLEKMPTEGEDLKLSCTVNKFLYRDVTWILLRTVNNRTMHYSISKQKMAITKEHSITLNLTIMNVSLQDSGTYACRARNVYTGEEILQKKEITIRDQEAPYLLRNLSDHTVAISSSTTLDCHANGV

Tests used:
[1] = biological target: VEGF-R1/Fc chimeric protein (R&D systems) (human) (UniProt P17948); assay: SPR and ELISA based assay
[2] = biological target: VEGF-R1/Fc chimeric protein (R&D systems) (human) (UniProt P17948); assay: SPR and ELISA based analysis

B1: purified refolded dimeric VEGF-B167 (ligand, human, UniProt P49765-2 22-188, looked up, not shown: small tags and cut ends)
chain: PVSQPDAPGHQRKVVSWIDVYTRATCQPREVVVPLTVELMGTVAKQLVPSCVTVQRCGGCCPDDGLECVPTGQHQVRMQILMIRYPSSQLGEMSLEEHSQCECRPKKKDSAVKPDSPRPLCPRCTQHHQRPDPRTCRCRCRRRSFLRCQGRGLELNPDTCRCRKLRR
notes: mature
binding [1]: binds
binding [2]: binds
